Assay results: the supplement of paper PMC10849652
The list shows a part of the results.

Sequences of proteins named here, by UniProt entry; tags and fusion partners are left off. A change or cut given only in a name is not applied to a line headed by its entry.
UniProt Q96SI1: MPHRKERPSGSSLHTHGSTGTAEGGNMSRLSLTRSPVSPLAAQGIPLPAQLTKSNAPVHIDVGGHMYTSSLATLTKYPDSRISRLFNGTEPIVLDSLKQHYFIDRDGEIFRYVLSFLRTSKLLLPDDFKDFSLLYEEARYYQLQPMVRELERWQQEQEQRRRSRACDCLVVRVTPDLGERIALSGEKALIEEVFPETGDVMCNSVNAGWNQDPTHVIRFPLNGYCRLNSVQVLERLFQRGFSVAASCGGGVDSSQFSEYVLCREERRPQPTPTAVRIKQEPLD
UniProt Q9BW62: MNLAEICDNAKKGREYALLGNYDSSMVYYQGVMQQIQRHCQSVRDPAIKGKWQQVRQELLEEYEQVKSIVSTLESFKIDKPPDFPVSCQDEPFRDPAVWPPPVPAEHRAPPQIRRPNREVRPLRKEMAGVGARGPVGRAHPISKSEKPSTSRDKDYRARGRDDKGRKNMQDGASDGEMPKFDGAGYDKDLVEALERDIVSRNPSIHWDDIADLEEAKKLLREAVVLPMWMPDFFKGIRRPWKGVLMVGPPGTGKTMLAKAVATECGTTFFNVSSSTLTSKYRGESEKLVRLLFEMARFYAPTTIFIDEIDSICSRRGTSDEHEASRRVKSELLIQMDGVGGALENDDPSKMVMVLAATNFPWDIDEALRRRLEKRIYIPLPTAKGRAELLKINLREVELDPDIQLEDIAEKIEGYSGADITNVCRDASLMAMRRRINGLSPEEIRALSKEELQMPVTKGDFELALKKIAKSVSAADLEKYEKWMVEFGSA
UniProt Q15652: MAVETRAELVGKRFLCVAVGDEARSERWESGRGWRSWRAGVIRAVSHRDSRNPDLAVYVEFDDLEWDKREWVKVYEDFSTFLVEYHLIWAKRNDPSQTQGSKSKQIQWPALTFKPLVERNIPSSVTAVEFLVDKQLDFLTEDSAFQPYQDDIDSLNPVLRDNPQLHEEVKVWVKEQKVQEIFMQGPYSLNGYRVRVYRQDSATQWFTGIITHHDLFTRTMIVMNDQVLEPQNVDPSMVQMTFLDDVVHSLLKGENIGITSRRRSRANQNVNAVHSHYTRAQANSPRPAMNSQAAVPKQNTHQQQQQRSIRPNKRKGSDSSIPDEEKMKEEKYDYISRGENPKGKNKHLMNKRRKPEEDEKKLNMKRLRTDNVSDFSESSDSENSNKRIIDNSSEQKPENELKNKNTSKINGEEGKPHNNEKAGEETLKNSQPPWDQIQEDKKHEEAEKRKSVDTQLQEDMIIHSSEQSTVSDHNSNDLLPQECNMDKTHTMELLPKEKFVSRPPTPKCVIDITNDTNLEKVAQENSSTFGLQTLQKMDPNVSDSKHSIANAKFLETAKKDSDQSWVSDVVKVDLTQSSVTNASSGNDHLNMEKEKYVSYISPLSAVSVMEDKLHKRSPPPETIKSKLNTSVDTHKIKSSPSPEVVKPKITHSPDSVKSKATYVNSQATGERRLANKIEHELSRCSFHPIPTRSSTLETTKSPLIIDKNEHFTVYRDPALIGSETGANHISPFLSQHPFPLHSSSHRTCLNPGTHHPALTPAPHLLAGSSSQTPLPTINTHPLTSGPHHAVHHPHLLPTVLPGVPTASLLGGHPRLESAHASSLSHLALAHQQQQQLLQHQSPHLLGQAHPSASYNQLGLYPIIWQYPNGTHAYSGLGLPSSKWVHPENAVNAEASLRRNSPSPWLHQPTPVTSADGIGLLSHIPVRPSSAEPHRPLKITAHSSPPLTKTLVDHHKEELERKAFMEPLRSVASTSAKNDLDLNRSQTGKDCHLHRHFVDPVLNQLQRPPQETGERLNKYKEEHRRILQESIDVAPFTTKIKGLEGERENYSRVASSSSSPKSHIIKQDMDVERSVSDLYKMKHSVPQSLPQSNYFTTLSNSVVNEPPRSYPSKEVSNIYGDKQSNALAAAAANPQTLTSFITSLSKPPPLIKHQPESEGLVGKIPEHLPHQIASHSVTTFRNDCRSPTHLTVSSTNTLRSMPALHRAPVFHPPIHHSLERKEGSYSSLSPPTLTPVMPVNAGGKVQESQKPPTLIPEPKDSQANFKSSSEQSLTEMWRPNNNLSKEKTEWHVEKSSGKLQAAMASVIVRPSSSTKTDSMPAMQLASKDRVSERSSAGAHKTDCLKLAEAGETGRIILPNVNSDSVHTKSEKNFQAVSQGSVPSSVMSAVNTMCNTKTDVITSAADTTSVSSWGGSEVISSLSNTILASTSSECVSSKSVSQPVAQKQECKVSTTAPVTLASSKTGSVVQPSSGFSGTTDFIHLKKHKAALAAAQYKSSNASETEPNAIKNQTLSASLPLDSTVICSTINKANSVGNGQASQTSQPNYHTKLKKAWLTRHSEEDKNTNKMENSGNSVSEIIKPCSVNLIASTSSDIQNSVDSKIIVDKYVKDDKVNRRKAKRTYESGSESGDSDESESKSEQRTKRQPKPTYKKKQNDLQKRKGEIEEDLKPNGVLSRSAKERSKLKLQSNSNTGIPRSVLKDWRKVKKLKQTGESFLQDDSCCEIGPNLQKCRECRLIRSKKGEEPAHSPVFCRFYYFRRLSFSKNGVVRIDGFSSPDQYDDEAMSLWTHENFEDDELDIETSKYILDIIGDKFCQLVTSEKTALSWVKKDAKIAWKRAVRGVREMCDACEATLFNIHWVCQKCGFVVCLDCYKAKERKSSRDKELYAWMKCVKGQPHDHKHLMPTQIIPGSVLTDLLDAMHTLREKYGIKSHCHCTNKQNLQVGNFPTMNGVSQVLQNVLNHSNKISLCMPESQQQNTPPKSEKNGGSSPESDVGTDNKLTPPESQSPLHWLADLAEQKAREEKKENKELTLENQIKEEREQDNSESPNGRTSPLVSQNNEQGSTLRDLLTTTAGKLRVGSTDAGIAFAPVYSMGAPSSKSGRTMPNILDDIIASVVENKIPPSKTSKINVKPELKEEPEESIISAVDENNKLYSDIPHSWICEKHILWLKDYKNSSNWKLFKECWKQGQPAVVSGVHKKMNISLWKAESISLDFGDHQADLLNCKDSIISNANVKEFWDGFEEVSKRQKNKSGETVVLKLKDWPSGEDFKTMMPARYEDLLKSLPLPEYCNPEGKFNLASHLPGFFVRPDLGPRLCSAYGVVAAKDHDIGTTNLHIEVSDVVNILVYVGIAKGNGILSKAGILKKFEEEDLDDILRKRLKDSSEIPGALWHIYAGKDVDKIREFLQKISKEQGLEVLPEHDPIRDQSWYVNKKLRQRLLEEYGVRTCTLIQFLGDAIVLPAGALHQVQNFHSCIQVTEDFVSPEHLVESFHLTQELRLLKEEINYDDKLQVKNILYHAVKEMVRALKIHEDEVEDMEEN
UniProt Q9H910: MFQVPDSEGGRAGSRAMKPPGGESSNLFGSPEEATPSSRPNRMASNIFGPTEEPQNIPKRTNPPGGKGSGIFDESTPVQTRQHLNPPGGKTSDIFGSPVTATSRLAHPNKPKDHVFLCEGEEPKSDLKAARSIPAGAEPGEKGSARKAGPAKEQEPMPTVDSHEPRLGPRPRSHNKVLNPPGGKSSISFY
UniProt Q96HW7, whole entry, looked up: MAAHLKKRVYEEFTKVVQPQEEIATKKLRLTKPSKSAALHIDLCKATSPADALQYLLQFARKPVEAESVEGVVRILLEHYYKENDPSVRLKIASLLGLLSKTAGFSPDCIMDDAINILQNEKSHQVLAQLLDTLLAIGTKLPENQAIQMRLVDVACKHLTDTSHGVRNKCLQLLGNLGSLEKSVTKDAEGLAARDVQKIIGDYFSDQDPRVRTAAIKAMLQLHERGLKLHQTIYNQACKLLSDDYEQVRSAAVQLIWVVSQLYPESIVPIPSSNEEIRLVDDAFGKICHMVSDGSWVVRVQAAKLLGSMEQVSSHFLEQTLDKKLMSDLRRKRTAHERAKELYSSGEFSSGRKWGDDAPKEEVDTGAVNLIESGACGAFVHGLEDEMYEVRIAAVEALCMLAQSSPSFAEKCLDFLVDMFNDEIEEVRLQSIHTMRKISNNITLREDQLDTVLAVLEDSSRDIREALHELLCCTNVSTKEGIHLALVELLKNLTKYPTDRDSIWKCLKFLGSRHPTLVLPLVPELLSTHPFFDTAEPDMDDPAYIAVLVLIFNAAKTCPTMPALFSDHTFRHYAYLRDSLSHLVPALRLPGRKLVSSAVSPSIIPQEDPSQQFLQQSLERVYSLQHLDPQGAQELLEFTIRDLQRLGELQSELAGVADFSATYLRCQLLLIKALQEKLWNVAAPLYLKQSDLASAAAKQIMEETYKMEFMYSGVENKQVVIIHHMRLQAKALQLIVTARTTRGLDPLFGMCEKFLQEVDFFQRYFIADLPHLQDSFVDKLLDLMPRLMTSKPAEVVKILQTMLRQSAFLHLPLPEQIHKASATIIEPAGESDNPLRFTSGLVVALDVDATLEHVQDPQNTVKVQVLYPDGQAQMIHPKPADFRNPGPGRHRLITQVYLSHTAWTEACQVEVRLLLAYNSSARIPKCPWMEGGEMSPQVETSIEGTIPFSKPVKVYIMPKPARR
UniProt Q7Z5L9: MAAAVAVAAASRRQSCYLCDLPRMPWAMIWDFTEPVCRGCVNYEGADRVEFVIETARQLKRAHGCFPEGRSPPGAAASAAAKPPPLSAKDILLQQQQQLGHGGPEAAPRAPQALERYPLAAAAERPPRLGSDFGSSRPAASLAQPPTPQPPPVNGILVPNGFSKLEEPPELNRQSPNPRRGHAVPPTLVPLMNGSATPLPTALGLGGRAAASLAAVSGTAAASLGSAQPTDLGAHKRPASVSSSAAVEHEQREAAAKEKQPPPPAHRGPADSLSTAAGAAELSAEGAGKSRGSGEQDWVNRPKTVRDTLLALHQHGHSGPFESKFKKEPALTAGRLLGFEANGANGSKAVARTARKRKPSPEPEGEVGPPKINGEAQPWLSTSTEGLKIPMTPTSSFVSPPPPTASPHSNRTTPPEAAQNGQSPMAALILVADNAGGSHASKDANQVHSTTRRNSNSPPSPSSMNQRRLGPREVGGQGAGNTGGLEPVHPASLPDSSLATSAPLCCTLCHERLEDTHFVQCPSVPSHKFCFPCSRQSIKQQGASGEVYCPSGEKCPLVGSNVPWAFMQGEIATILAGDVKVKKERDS
UniProt O95373, whole entry, looked up: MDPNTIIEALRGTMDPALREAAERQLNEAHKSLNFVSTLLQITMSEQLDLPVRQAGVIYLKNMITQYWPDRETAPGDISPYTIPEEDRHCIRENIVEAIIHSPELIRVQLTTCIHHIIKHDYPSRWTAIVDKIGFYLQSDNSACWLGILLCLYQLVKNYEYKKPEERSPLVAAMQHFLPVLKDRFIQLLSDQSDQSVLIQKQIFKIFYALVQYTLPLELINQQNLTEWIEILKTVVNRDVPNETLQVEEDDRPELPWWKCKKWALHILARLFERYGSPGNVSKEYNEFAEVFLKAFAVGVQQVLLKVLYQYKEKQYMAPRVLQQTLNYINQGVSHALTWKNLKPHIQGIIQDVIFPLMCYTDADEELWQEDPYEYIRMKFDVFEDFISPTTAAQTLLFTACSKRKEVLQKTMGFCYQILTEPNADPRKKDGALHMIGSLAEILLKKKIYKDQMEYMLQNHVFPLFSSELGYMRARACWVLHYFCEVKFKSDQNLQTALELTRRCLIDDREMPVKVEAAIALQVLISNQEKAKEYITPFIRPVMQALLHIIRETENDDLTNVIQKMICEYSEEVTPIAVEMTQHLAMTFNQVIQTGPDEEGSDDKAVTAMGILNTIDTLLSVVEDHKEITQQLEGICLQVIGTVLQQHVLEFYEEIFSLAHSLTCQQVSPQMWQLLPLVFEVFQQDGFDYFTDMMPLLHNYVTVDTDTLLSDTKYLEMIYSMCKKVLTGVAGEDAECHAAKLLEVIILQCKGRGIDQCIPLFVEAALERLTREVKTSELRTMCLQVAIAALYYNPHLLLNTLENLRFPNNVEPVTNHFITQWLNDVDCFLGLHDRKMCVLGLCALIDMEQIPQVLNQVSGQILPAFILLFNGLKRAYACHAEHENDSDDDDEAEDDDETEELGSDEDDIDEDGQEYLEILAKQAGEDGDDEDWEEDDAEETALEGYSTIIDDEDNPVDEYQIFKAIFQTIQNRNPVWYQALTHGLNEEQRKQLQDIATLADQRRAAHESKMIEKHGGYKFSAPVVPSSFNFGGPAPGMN
UniProt Q9NWZ3, whole entry, looked up: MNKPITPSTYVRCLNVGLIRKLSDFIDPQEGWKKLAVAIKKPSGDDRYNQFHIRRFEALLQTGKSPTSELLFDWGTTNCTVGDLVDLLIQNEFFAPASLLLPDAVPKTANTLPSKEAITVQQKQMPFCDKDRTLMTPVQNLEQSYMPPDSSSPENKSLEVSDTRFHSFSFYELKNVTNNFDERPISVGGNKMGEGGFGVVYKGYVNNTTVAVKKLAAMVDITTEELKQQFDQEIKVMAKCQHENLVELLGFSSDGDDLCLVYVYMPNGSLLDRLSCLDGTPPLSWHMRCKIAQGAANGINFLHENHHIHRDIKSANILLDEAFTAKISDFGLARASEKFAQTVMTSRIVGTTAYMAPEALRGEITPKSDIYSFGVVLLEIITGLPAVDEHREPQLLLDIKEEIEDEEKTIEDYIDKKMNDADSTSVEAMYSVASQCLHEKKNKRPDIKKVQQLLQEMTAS

Columns and labels:
Assay in all cases: log2 fold change, soluble protein after heating vs DMSO (PISA); higher = thermal stabilisation; K562 lysate, 10 uM; active = over 0.2 and 3.5 SD of the protein, either way, in both replicates (recomputed)
lapatinib = compound: CS(=O)(=O)CCNCc1ccc(-c2ccc3ncnc(Nc4ccc(OCc5cccc(F)c5)c(Cl)c4)c3c2)o1 [lapatinib]
Outline: (§1)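 Thermal stability, expressed as log-two fold change relative to solvent controls, is given from duplicates. Crude K562 extract in PBS pH 7.4 with 1 mM MgCl2, at 1 mg/mL protein, was treated with 10 μM compound for 30 min and heated in aliquots for 3 min across 48°C-58°C. After pooling, adjustment to 0.5% NP-40 at 4°C and centrifugation at 21,000xg for 90 min, supernatant protein was measured by TMTpro 16plex LC-MS/MS with channel sums equalised.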

pictilisib = compound: CS(=O)(=O)N1CCN(Cc2cc3nc(-c4cccc5[nH]ncc45)nc(N4CCOCC4)c3s2)CC1 [pictilisib]
Outline: as §1

crizotinib = compound: C[C@@H](Oc1cc(-c2cnn(C3CCNCC3)c2)cnc1N)c1c(Cl)ccc(F)c1Cl [crizotinib]
Outline: as §1

[1] = compound: C[C@H](C1=CC=C(C=C1)C(=O)NC2=C3C=CNC3=NC=C2)N
Outline: as §1

duvelisib = compound: C[C@H](Nc1ncnc2nc[nH]c12)c1cc2cccc(Cl)c2c(=O)n1-c1ccccc1 [duvelisib]
Outline: as §1

gandotinib = compound: Cc1cc(Nc2cc(CN3CCOCC3)c3nc(C)c(Cc4ccc(Cl)cc4F)n3n2)n[nH]1 [gandotinib]
Outline: as §1

tozasertib = compound: Cc1cc(Nc2cc(N3CCN(C)CC3)nc(Sc3ccc(NC(=O)C4CC4)cc3)n2)n[nH]1 [tozasertib]
Outline: as §1

doramapimod = compound: Cc1ccc(-n2nc(C(C)(C)C)cc2NC(=O)Nc2ccc(OCCN3CCOCC3)c3ccccc23)cc1 [doramapimod]
Outline: as §1

bafetinib = compound: Cc1ccc(NC(=O)c2ccc(CN3CC[C@H](N(C)C)C3)c(C(F)(F)F)c2)cc1Nc1nccc(-c2cncnc2)n1 [bafetinib]
Outline: as §1

[2] = compound: Cc1cccc(CC(=O)N2CCc3c2ccc(-c2cn(C)c4ncnc(N)c24)c3F)n1
Outline: as §1

nilotinib = compound: Cc1cn(-c2cc(NC(=O)c3ccc(C)c(Nc4nccc(-c5cccnc5)n4)c3)cc(C(F)(F)F)c2)cn1 [nilotinib]
Outline: as §1

[3] = compound: Cc1nc(Nc2n[nH]c3c2CN(C(=O)N[C@H](CN(C)C)c2ccccc2)C3(C)C)c2sccc2n1
Outline: as §1

dasatinib = compound: Cc1nc(Nc2ncc(C(=O)Nc3c(C)cccc3Cl)s2)cc(N2CCN(CCO)CC2)n1 [dasatinib]
Outline: as §1

[4] = compound: Cc1ncc(-c2ccnc(Nc3ccc(S(C)(=O)=O)cc3)n2)n1C(C)C
Outline: as §1

[5] = compound: Cn1cc(-c2ccc3c(c2)CCN3C(=O)Cc2cccc(C(F)(F)F)c2)c2c(N)ncnc21
Outline: as §1

quisinostat = compound: Cn1cc(CNCC2CCN(c3ncc(C(=O)NO)cn3)CC2)c2ccccc21 [quisinostat]
Outline: as §1

tipifarnib = compound: Cn1cncc1[C@@](N)(c1ccc(Cl)cc1)c1ccc2c(c1)c(-c1cccc(Cl)c1)cc(=O)n2C [tipifarnib]
Outline: as §1

[6] = compound: NC(=O)Nc1cc(-c2cccc(F)c2)sc1C(=O)N[C@H]1CCCNC1
Outline: as §1

[7] = compound: NC(=O)c1cnc(N[C@@H]2CCCC[C@@H]2N)nc1Nc1cccc(-n2nccn2)c1
Outline: as §1

[8] = compound: NC1(c2ccc(-c3nc4ccn5c(=O)[nH]nc5c4cc3-c3ccccc3)cc2)CCC1
Outline: as §1

Measured: log2 fold change

KCTD15 (UniProt Q96SI1)
inactive: lapatinib 0.044 | pictilisib -0.08 | crizotinib 0.038 | [1] 0.004 | duvelisib 0.022 | gandotinib 0.009 | tozasertib -0.002 | doramapimod -0.019 | bafetinib -0.035 | [2] -0.019 | nilotinib 0.047 | [3] 0.005 | dasatinib 0.082 | [4] -0.118 | [5] 0.047 | quisinostat 0.06 | tipifarnib 0.028 | [6] 0.006 | [7] -0.001 | [8] 0.008

KATNAL1 (UniProt Q9BW62)
inactive: lapatinib -0.053 | pictilisib -0.108 | crizotinib 0.038 | [1] -0.094 | duvelisib -0.067 | gandotinib -0.079 | tozasertib 0.124 | doramapimod -0.05 | bafetinib 0.073 | [2] -0.146 | nilotinib -0.101 | [3] 0.065 | dasatinib 0.092 | [4] -0.18 | [5] 0.057 | quisinostat 0.083 | tipifarnib 0.069 | [6] 0.072 | [7] 0.04 | [8] -0.036

IPO13 (UniProt O94829)
inactive: lapatinib -0.022 | pictilisib -0.035 | crizotinib -0.022 | [1] -0.015 | duvelisib -0.041 | gandotinib -0.083 | tozasertib 0.002 | doramapimod -0.013 | bafetinib -0.069 | [2] 0.023 | nilotinib 0.019 | [3] -0.05 | dasatinib -0.074 | [4] 0.029 | [5] 0.04 | quisinostat -0.018 | tipifarnib 0.021 | [6] 0.052 | [7] 0.001 | [8] -0.002

JMJD1C (UniProt Q15652)
inactive: lapatinib -0.073 | pictilisib -0.128 | crizotinib 0.022 | [1] 0.013 | duvelisib -0.026 | gandotinib -0.031 | tozasertib 0.01 | doramapimod -0.032 | bafetinib 0.013 | [2] 0 | nilotinib 0.026 | [3] -0.024 | dasatinib -0.012 | [4] 0 | [5] -0.001 | quisinostat -0.033 | tipifarnib -0.036 | [6] 0.057 | [7] 0.023 | [8] 0.073

ITSN1 isoform 8 (UniProt Q15811)
inactive: lapatinib -0.006 | pictilisib -0.073 | crizotinib 0.001 | [1] 0.02 | duvelisib 0.031 | gandotinib -0.043 | tozasertib -0.005 | doramapimod 0.003 | bafetinib 0.009 | [2] -0.043 | nilotinib -0.029 | [3] 0.002 | dasatinib -0.035 | [4] 0.036 | [5] 0.023 | quisinostat -0.066 | tipifarnib 0.009 | [6] 0.055 | [7] -0.019 | [8] 0.043

KCTD5 (UniProt Q9NXV2)
inactive: lapatinib 0.009 | pictilisib 0.019 | crizotinib 0.018 | [1] -0.014 | duvelisib 0.046 | gandotinib 0.041 | tozasertib 0.037 | doramapimod 0.02 | bafetinib 0.012 | [2] 0.059 | nilotinib -0.009 | [3] 0.071 | dasatinib -0.092 | [4] 0.066 | [5] -0.024 | quisinostat 0.019 | tipifarnib -0.04 | [6] 0.02 | [7] 0.098 | [8] -0.1

KCNAB2 (UniProt Q13303)
inactive: lapatinib 0.018 | pictilisib 0.011 | crizotinib -0.059 | [1] -0.074 | duvelisib -0.019 | gandotinib 0.028 | tozasertib 0.066 | doramapimod -0.029 | bafetinib -0.031 | [2] 0.025 | nilotinib 0.021 | [3] -0.032 | dasatinib 0.017 | [4] 0.01 | [5] 0.058 | quisinostat -0.028 | tipifarnib -0.016 | [6] 0.034 | [7] -0.026 | [8] 0.007

JPT2 isoform 3 (UniProt Q9H910)
inactive: lapatinib -0.001 | pictilisib 0.029 | crizotinib 0.032 | [1] 0.029 | duvelisib -0.02 | gandotinib 0.031 | tozasertib -0.006 | doramapimod -0.037 | bafetinib -0.017 | [2] -0.033 | nilotinib -0.007 | [3] 0.023 | dasatinib -0.007 | [4] 0.005 | [5] -0.033 | quisinostat -0.014 | tipifarnib 0.078 | [6] -0.035 | [7] -0.03 | [8] -0.005

ITGA5 (UniProt P08648)
inactive: lapatinib -0.011 | pictilisib -0.022 | crizotinib 0.031 | [1] 0 | duvelisib 0.003 | gandotinib 0.017 | tozasertib -0.028 | doramapimod -0.017 | bafetinib -0.006 | [2] -0.011 | nilotinib -0.012 | [3] -0.023 | dasatinib 0.008 | [4] 0.002 | [5] -0.018 | quisinostat -0.035 | tipifarnib -0.032 | [6] 0.021 | [7] -0.001 | [8] 0.003

KBTBD8 (UniProt Q8NFY9)
inactive: lapatinib 0.016 | pictilisib 0.026 | crizotinib -0.047 | [1] -0.011 | duvelisib -0.038 | gandotinib -0.003 | tozasertib 0.006 | doramapimod -0.012 | bafetinib -0.133 | [2] 0.053 | nilotinib 0.019 | [3] 0.013 | dasatinib 0.005 | [4] 0.02 | [5] 0.008 | quisinostat 0.043 | tipifarnib 0.033 | [6] -0.015 | [7] -0.033 | [8] 0

IRAK1 (UniProt P51617)
active: crizotinib 0.799 | [6] 0.373
inactive: lapatinib 0.023 | pictilisib -0.008 | [1] -0.111 | duvelisib -0.169 | gandotinib 0.26 | tozasertib -0.116 | doramapimod 0.172 | bafetinib -0.036 | [2] 0.168 | nilotinib -0.036 | [3] 0.011 | dasatinib 0.051 | [4] 0.112 | [5] 0.131 | quisinostat -0.145 | tipifarnib 0.016 | [7] 0.005 | [8] -0.005

INTS4 (UniProt Q96HW7)
inactive: lapatinib -0.073 | pictilisib -0.046 | crizotinib -0.027 | [1] -0.036 | duvelisib -0.025 | gandotinib 0.007 | tozasertib -0.014 | doramapimod -0.032 | bafetinib -0.067 | [2] 0.038 | nilotinib 0.021 | [3] -0.028 | dasatinib -0.019 | [4] -0.023 | [5] -0.007 | quisinostat -0.017 | tipifarnib 0.073 | [6] -0.005 | [7] 0.032 | [8] 0.047

IRF2BP2 (UniProt Q7Z5L9)
inactive: lapatinib -0.011 | pictilisib -0.024 | crizotinib 0.006 | [1] -0.021 | duvelisib -0.027 | gandotinib 0.052 | tozasertib -0.001 | doramapimod 0.02 | bafetinib 0.036 | [2] -0.024 | nilotinib 0 | [3] 0.032 | dasatinib 0.018 | [4] 0.014 | [5] -0.03 | quisinostat -0.026 | tipifarnib -0.003 | [6] 0.028 | [7] -0.004 | [8] 0.02

IPO7 (UniProt O95373)
inactive: lapatinib -0.026 | pictilisib -0.012 | crizotinib -0.03 | [1] -0.115 | duvelisib 0.038 | gandotinib 0.061 | tozasertib -0.027 | doramapimod 0.008 | bafetinib -0.031 | [2] 0.111 | nilotinib -0.009 | [3] -0.013 | dasatinib -0.015 | [4] 0 | [5] -0.016 | quisinostat -0.054 | tipifarnib -0.019 | [6] 0.027 | [7] -0.006 | [8] -0.021

Fetched one by one from the list above, two records:
KBTBD8 (UniProt Q8NFY9)
inactive: lapatinib 0.016 | pictilisib 0.026 | crizotinib -0.047 | [1] -0.011 | duvelisib -0.038 | gandotinib -0.003 | tozasertib 0.006 | doramapimod -0.012 | bafetinib -0.133 | [2] 0.053 | nilotinib 0.019 | [3] 0.013 | dasatinib 0.005 | [4] 0.02 | [5] 0.008 | quisinostat 0.043 | tipifarnib 0.033 | [6] -0.015 | [7] -0.033 | [8] 0

IRF2BP2 (UniProt Q7Z5L9)
inactive: lapatinib -0.011 | pictilisib -0.024 | crizotinib 0.006 | [1] -0.021 | duvelisib -0.027 | gandotinib 0.052 | tozasertib -0.001 | doramapimod 0.02 | bafetinib 0.036 | [2] -0.024 | nilotinib 0 | [3] 0.032 | dasatinib 0.018 | [4] 0.014 | [5] -0.03 | quisinostat -0.026 | tipifarnib -0.003 | [6] 0.028 | [7] -0.004 | [8] 0.02

Remaining list, next part:

IRAK4 (UniProt Q9NWZ3)
inactive: lapatinib -0.021 | pictilisib -0.018 | crizotinib 0.175 | [1] 0.012 | duvelisib 0.026 | gandotinib -0.082 | tozasertib 0 | doramapimod 0.011 | bafetinib -0.013 | [2] 0.012 | nilotinib -0.115 | [3] 0.065 | dasatinib 0.051 | [4] -0.012 | [5] 0.023 | quisinostat -0.066 | tipifarnib -0.044 | [7] 0.028 | [8] 0
active: [6] 0.413
